Source: PubChem BioAssay AID720505 (Drosophila RNAi Screening Center, 2013)
Aim: 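Genes needed for store-operated calcium entry in fly cells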 (primary screen). System: Drosophila S2R+ cells. Reagent: long dsRNA against Drosophila genes. Conditions: thapsigargin (2 µM) in calcium-free buffer to empty internal stores, then 2 mM calcium added back. Detection: 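Stores emptied by 2 µM thapsigargin without calcium, then 2 mM calcium re-added; fluo-4 fluorescence followed by FLIPR in 384-well plates, per-well averaged endpoint, raw; two screen passes, some wells retested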. Reading the numbers: calcium signal and retest calcium signal: higher = more calcium entry after store depletion. Rule for the call: 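Knock-downs counted as hits when calcium entry dropped relative to STIM1 positive and Rho1 negative controls present on each plate; roughly 1500 genes called, with reductions of differing size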. Calls: active = called as lowering calcium entry; inactive = not called.
The screen tested about 20,000 reagents; below is an unselected part of those that have a named target and a result. Of all reagents, about 2,100 (10%) were called active. 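Raw plate signals without normalisation; calls rest on control-based scores that were not deposited; replicate 2 separates called from uncalled poorly.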 A plus sign joins genes that one reagent is predicted to hit. Not given: the amount of reagent, the time to read-out.

The first 6 records, to show the layout:
predicted target	amplicon	calcium signal, replicate 1	calcium signal, replicate 2	retest calcium signal, replicate 1	retest calcium signal, replicate 2	call
dre4	DRSC08714	92.9	113			inactive
CSN1b (COP9 signalosome subunit 1b)	DRSC11108	106	101			inactive
CG3492	DRSC04373	170	119			inactive
CG16799	DRSC06626	134	128			inactive
CG16799	DRSC21553	135	69.4			inactive
DIP-epsilon (Dpr-interacting protein epsilon)	DRSC00932	113	178	117	70.4	inactive

The listing, from the first entry:
predicted target	amplicon	calcium signal, replicate 1	calcium signal, replicate 2	retest calcium signal, replicate 1	retest calcium signal, replicate 2	call
dre4	DRSC08714	92.9	113			inactive
CSN1b (COP9 signalosome subunit 1b)	DRSC11108	106	101			inactive
CG3492	DRSC04373	170	119			inactive
CG16799	DRSC06626	134	128			inactive
CG16799	DRSC21553	135	69.4			inactive
DIP-epsilon (Dpr-interacting protein epsilon)	DRSC00932	113	178	117	70.4	inactive
DIP-epsilon (Dpr-interacting protein epsilon)	DRSC02313	72.8	198			active
alpha-Est4 (alpha-Esterase-4)	DRSC12616	122	140			inactive
btd (buttonhead)	DRSC18747	72	86.6			active
CG14135	DRSC10140	46	56.2			active
DCX-EMAP	DRSC10012	81.9	107			inactive
DCX-EMAP	DRSC10013	110	180			inactive
CG14669	DRSC12255	124	120			inactive
CG8654	DRSC07231	145	106			inactive
Trhn (Tryptophan hydroxylase neuronal)	DRSC08621	125	119			inactive
TwdlU (TweedleU)	DRSC12224	108	126			inactive
Gcat (Glycine C-acetyltransferase)	DRSC09719	84.3	81			inactive
ppl (pumpless)	DRSC11899	60.9	104			active
CG7148	DRSC11802	95.8	94.1			inactive
CG6015	DRSC15948	44.2	75.6			active
Megf8 (Multiple EGF like domains 8)	DRSC03058	142	215			inactive
CG14414	DRSC19599	83	137			inactive
CG6441	DRSC02957	189	74.4			inactive
Brf (Brf RNA polymerase III subunit)	DRSC14166	124	197			inactive
Brf (Brf RNA polymerase III subunit)	DRSC14167	118	190			inactive
e(r) (enhancer of rudimentary)	DRSC18768	152	162			inactive
CG9570	DRSC20687	71.1	134			active
CG42382	DRSC07671	133	136			inactive
CG31792	DRSC02604	137	113			inactive
CG12288	DRSC02155	115	115			inactive
rogdi	DRSC10906	98.8	96.7			inactive
CG4456 + Hsp22	DRSC11187	87.4	83.9			inactive
CG4456 + Hsp22	DRSC11192	99.1	105			inactive
Meics (Meiotic central spindle)	DRSC11413	126	116			inactive
CG8519	DRSC10985	81.2	60.7			inactive
CG8526	DRSC16438	145	79.6			inactive
Pgm1 (Phosphoglucose mutase 1)	DRSC10490	130	90.5			inactive
Bili (Band4.1 inhibitor LRP interactor)	DRSC14405	233	270			inactive
shop (shopper)	DRSC20030	157	126			inactive
CG10081	DRSC05962	202	146			inactive
chico	DRSC03531	123	125			inactive
Kul (Kuzbanian-like)	DRSC15404	159	164			inactive
CG42561	DRSC05676	101	93.8			inactive
CG4631	DRSC02766	63	93.1	137	165	active
CG4631	DRSC22194	117	206			inactive
CG30273	DRSC22059	83.1	220			inactive
Taf10b + Taf10	DRSC00793	202	200			inactive
CG1299	DRSC08300	97.1	103			inactive
CG13018	DRSC06274	93.3	158			inactive
CG17764	DRSC18135	275	73.7			inactive
CG17764	DRSC23055	101	136			inactive
CG9777	DRSC20208	98.7	127			inactive
ChAT (Choline acetyltransferase)	DRSC16609	167	145			inactive
ChAT (Choline acetyltransferase)	DRSC22755	140	197			inactive
retinin	DRSC09940	71.6	179			inactive
bdg (bedraggled)	DRSC07136	86.7	91.6			inactive
Lkr (Leucokinin receptor)	DRSC09754	90.4	74.4			inactive
CG8087	DRSC16375	121	119			inactive
Arf6 (ADP ribosylation factor 6)	DRSC05921	105	158			inactive
Orc6 (Origin recognition complex subunit 6)	DRSC07497	122	221			inactive
gNacalpha	DRSC00654	164	99.7			inactive
nst (nesthocker)	DRSC09755	124	85.4			inactive
Idh3b (Isocitrate dehydrogenase 3b)	DRSC16040	123	154			inactive
CG6511	DRSC10656	90.2	83.3			inactive
GluRS-m (Glutamyl-tRNA synthetase, mitochondrial)	DRSC10431	65.7	152			inactive
CG5327	DRSC06930	159	161			inactive
Jon74E (Jonah 74E)	DRSC10617	109	192			inactive
CG17562	DRSC15243	103	91.3			inactive
Gabat (gamma-aminobutyric acid transaminase)	DRSC10846	81.9	111			inactive
Cyp6a16Psi (retired record)	DRSC03307	147	93			inactive
CG10907	DRSC09804	77	84.6			inactive
CG31642	DRSC02919	129	268			inactive
Ccp84Af	DRSC12591	157	122			inactive
Mtpbeta (Mitochondrial trifunctional protein beta subunit)	DRSC04663	102	125			inactive
UQCR-C1 (Ubiquinol-cytochrome c reductase core protein 1)	DRSC15508	80.6	74.3			inactive
CG1265	DRSC08288	108	105			inactive
CG3984	DRSC15530	94.8	177			inactive
Gprk2 (G protein-coupled receptor kinase 2)	DRSC16682	97.9	92.8			inactive
Gprk2 (G protein-coupled receptor kinase 2)	DRSC23336	129	174			inactive
Or65a (Odorant receptor 65a)	DRSC08808					inactive
Grip71	DRSC02042	48.7	84.1			active
mRpL17 (mitochondrial ribosomal protein L17)	DRSC08350	82.6	81			inactive
CG14778	DRSC17953	74.1	112			inactive
